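SH-SY5Y cells carrying a GLuc-SERCaMP reporter are challenged with thapsigargin, and luminescence from the secreted luciferase is read, with one incubation step lasting 4 hours. Compounds were run as a dilution series spanning about 2.6e-05 to 200 µM, mostly topping out at 38.4 µM. The number is the fitted AC50 for inhibition of the reporter signal; a lower value means a more potent compound. Calls come from curve class and activity score: actives score 40 to 100, inconclusives 1 to 39, and inactives (curve class 4) score 0.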

Values are in nM. Every entry below has the call inconclusive. Only part of the assay is shown, chiefly results filed as inconclusive. Potencies fitted to partial, single-point or poorly fitting curves are rough. Some entries filed as inconclusive have a full curve. Activity scores are not listed here.

SMILES	potency (nM)	remark
CN(C)CC[C@@H](c1ccc(Br)cc1)c1ccccn1	31622	inhibitor, partial curve, poor fit
Nn1cc(Br)c(=O)[nH]c1=O	10000	inhibitor, partial curve, poor fit
COc1cccc(Nc2ncc3nc(-c4ccccc4)c(=O)n(C[C@H]4CCCO4)c3n2)c1	12589	inhibitor, partial curve, poor fit
COc1ccc(C(=O)O[C@H]2CC[C@@]3(C)C4CCC5[C@]6(O)C[C@H](O)[C@@]7(O)C(CN8C[C@@H](C)CC[C@H]8[C@@]7(C)O)[C@]6(O)C[C@@]53O[C@@]42O)cc1OC (stereo not given in full)	7080	inhibitor, partial curve, poor fit
CC[C@@H]1Cn2c(c3nc(-c4cc(Cl)cc(Cl)c4Cl)nc-3n(C)c2=O)N1	11220	inhibitor, single point
O=c1c(-c2cc(F)cc(F)c2)nc2cnc(N3CCNCC3)nc2n1-c1ccccc1	12589	inhibitor, partial curve, poor fit
CCCCCCCC/C=C\CCCCCCCC(=O)N[C@@H](CO)Cc1ccc(O)cc1	31622	inhibitor, partial curve, poor fit
c1cc(N2CCCC3(CCNCC3)C2)ccn1	2818	inhibitor, full curve, poor fit
O=C(Cc1ccccc1)Nc1nc2ccc(Cl)cc2c2nc(-c3ccco3)nn12	31622	inhibitor, partial curve, poor fit
C[C@@](Cc1ccc(O)c(O)c1)(NN)C(=O)O	12589	inhibitor, full curve
COCCCCC(=NOCCN)c1ccc(C(F)(F)F)cc1	28183	inhibitor, single point
CC(C)N1CCN(c2ccc(C(=O)c3c(-c4ccc(O)cc4)sc4cc(O)ccc34)cc2)CC1	10000	inhibitor, partial curve, poor fit
Oc1ccc(/C=C/c2ccc(/C=C/c3ccc(O)cc3)c(Br)c2)cc1	31622	inhibitor, partial curve, poor fit
O=C(OOC(=O)c1ccccc1)c1ccccc1	31622	inhibitor, partial curve, poor fit
CCNc1ncc2nc(-c3ccccc3)c(=O)n(C3CC3)c2n1	28183	inhibitor, single point
NC(N)=NC(N)=Nc1ccccc1	10000	inhibitor, partial curve, poor fit
CN(C)CCCN=c1c2ccccc2n(C)c2[nH]c(=O)n(C)c(=O)c12	149.5	inhibitor, full curve, poor fit
COC(=O)/C=C\C(=O)OC	31622	inhibitor, partial curve, poor fit
Cc1cc(O)c(C)c(C)c1O	10000	inhibitor, partial curve, poor fit
N[C@@H](C(=O)O)c1ccc(C(=O)O)c(C(=O)O)c1	10000	inhibitor, partial curve, poor fit
NCCc1c[nH]c2ccc(C(N)=O)cc12	10000	inhibitor, partial curve, poor fit
Cc1noc(C)c1-c1nccc(N2CCNCC2)n1	22387	inhibitor, partial curve, poor fit
CC(C)N=C(N)N=C(N)Nc1ccc(Cl)cc1	11220	inhibitor, partial curve, poor fit
O=C(CCCl)NCc1ccccc1	31622	inhibitor, partial curve, poor fit

Once more, the final 3:

With Cc1noc(C)c1-c1nccc(N2CCNCC2)n1 the assay gave potency 22387 nM (inhibitor, partial curve, poor fit).
With CC(C)N=C(N)N=C(N)Nc1ccc(Cl)cc1 the assay gave potency 11220 nM (inhibitor, partial curve, poor fit).
With O=C(CCCl)NCc1ccccc1 the assay gave potency 31622 nM (inhibitor, partial curve, poor fit).

The results are deposited in PubChem (AID1508630; NCATS, 2021).